Source: PubChem BioAssay AID652259 (Drosophila RNAi Screening Center, 2013)
The deposit covers about 22,000 reagents; shown is a random part of those with a known target gene and a result. Over the whole deposit, 233 (1.1%) got an active call. 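Light values are raw, unnormalised plate reads; the ratio scores behind the reporter calls were not deposited.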 A number with no mark means an inactive call. A plus sign joins genes that one reagent is predicted to hit. The record does not give: the amount of reagent, the time to read-out, the dose of the treatment.

- Screen: 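Identify new Wingless signalling regulators in fly cells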 (primary screen)
- System: Drosophila clone 8 imaginal disc epithelial cells
- Reagents: long dsRNA against Drosophila genes
- Conditions: pathway stimulated by co-transfected Wingless expression plasmid
- Detection: 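Firefly luciferase from a tcf-site Wingless reporter, measured alongside co-transfected Renilla luciferase that tracks transfection; pathway stimulated by a Wingless plasmid; the firefly-to-Renilla ratio is not deposited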
- Scale: firefly reporter light: higher = more Wg reporter light, before normalisation; Renilla control light: higher = more transfected or surviving cells
- Rule for the call: 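Strong candidates differ from their plate mean by at least two out of four per-plate statistical tests; weak candidates meet just one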
- Calls: active = candidate regulator (raises or lowers reporter); inactive = not a candidate

no.	target gene	DRSC id	reporter change call, replicate 1	firefly reporter light, replicate 1	firefly reporter light, replicate 2	Renilla control light, replicate 1	Renilla control light, replicate 2
1	CG34409	DRSC14577		13634		3107	
2	CG34409	DRSC21667		5.77e5	6.88e5	3.75e5	2.95e5
3	CG31680	DRSC21878		5.13e5	5.04e5	1.96e5	2.24e5
4	CG11726	DRSC09858		8693		3472	
5	eIF4E4 (eukaryotic translation initiation factor 4E4)	DRSC09701		580	3232	800	2233
6	Tim10 + CG42497	DRSC04664		13330		3441	
7	stwl (stonewall)	DRSC11400		1724		761	
8	OS9 + Hf	DRSC03392		6352		2128	
9	salto	DRSC06291		6097		2544	
10	Pat1 (Protein interacting with APP tail-1)	DRSC17750		1970	7008	717	1909
11	CG7914	DRSC20068		19680		11369	
12	Mkk4 (MAP kinase kinase 4)	DRSC16739		11211		2477	
13	Tmtc3 (Transmembrane O-mannosyltransferase targeting cadherins 3)	DRSC04444		9488		2401	
14	CG40005 (retired record) + cta	DRSC03763		20042		12043	
15	CG5162	DRSC19935		21817		10053	
16	Mrp5 (Multidrug resistance protein 5)	DRSC15597		11644		3705	
17	Mrp5 (Multidrug resistance protein 5)	DRSC15598		21107		5363	
18	Tasp1 (Taspase 1)	DRSC10495		3473		1769	
19	CG10919	DRSC14283		17760		4813	
20	Gr10a (Gustatory receptor 10a)	DRSC18897		5446		3085	
21	Gr10a (Gustatory receptor 10a)	DRSC22792		6.92e5	6.97e5	2.90e5	3.25e5
22	beta4GalNAcTA (beta1,4-N-acetylgalactosaminyltransferase A)	DRSC05944		4129		1208	
23	icln	DRSC07630		5403		1882	
24	CG13081	DRSC02185		2038	5786	502	2055
25	cue (cueball)	DRSC08248		16256		4199	
26	CheB38c (Chemosensory protein B 38c)	DRSC02389		2356	8662	832	3803
27	CG4887	DRSC00670		3738	10008	1933	4381
28	CG4887	DRSC21563		7.73e5	7.30e5	3.92e5	3.64e5
29	Ufl1 (UFM1 specific ligase 1)	DRSC12527		4874		1794	
30	Wdfy2 (WD repeat and FYVE domain containing 2)	DRSC02822		12134		2128	
31	CG6357	DRSC06979		12092		3785	
32	jb (jean-baptiste)	DRSC20531		15835		10029	
33	HP1c (Heterochromatin Protein 1c)	DRSC16166		3047	9344	1338	2512
34	upSET	DRSC11051		6102		1141	
35	Acbp2 (Acyl-CoA binding protein 2)	DRSC11141		1706	9804	1219	4584
36	CG42241 (retired record)	DRSC04007		16612		8064	
37	Nadk1a (NAD kinase 1a)	DRSC05431		27553		23133	
38	Nadk1a (NAD kinase 1a)	DRSC06963		15634		4370	
39	lectin-21Ca	DRSC00541		1987	6096	1062	2098
40	CG2854	DRSC18595		16043		15521	
41	CG6409	DRSC10630		9121		3777	
42	CG6409	DRSC22330		6.67e5	6.56e5	3.21e5	3.25e5
43	CG14301	DRSC14780		15520		4252	
44	CG2930	DRSC17730		2923	5235	1127	1926
45	CG4702	DRSC15626		7984		2563	
46	Gr22c (Gustatory receptor 22c)	DRSC22081		7.33e5	8.11e5	3.47e5	3.89e5
47	CG14507	DRSC14859		5560		2518	
48	Ir25a (Ionotropic receptor 25a)	DRSC00462		3200	6224	1032	2297
49	Npc2a (Niemann-Pick type C-2a)	DRSC00698		2242	6540	759	2246
50	Ate1 (Arginyltransferase 1)	DRSC05925		22708		4603	
51	Or69a (Odorant receptor 69a)	DRSC11243		5696		2144	
52	CG16986	DRSC08502		7453		3408	
53	Orct2 (Organic cation transporter 2)	DRSC14613		1498	5405	856	1523
54	CG2218	DRSC15428		3264	5760	1275	1384
55	CG12017	DRSC08225		6771		2866	
56	CG14050	DRSC18594		11651		11645	
57	ValRS (Valyl-tRNA synthetase)	DRSC06864		7370		2873	
58	Or22a (Odorant receptor 22a)	DRSC00764		6161	10422	987	2276
59	CG10175	DRSC13628		3062		1379	
60	CG10175	DRSC14200		25458		19611	
61	CG10175	DRSC21981		5.35e5	5.58e5	2.35e5	2.55e5
62	CG7443	DRSC16244		15856		4296	
63	CG7387	DRSC10833		3318		1388	
64	CAP	DRSC05215		22121		19597	
65	CAP	DRSC06743		6182		2663	
66	CAP	DRSC06744		6970	18064	712	2759
67	CAP	DRSC06745		2851	7510	1092	4006
68	CAP	DRSC06846		3282	10714	1168	4353
69	HipHop (HP1-HOAP-interacting protein)	DRSC10734		5076		1859	
70	CG5921	DRSC17431		3291		1443	
71	CG5921	DRSC18390		16904		8805	
72	CG5516	DRSC15826		19661		4569	
73	CG5516	DRSC21753		6.26e5	6.06e5	1.84e5	1.78e5
74	CG13358	DRSC18534		21898		11840	
75	stil (stand still)	DRSC07699		6049		2268	
76	CG14860	DRSC14983		19510		6595	
77	CG4882	DRSC04495		3191	5783	827	2128
78	Achl (Achilles)	DRSC06665	Wg reporter activity lowered	4056		1920	
79	Rgk1 (Rad, Gem/Kir family member 1)	DRSC05785		15040		11328	
80	Rgk1 (Rad, Gem/Kir family member 1)	DRSC05786		12485		12114	
81	Rgk1 (Rad, Gem/Kir family member 1)	DRSC05789		21947		15370	
82	Rgk1 (Rad, Gem/Kir family member 1)	DRSC07343		6098		1737	
83	Rgk1 (Rad, Gem/Kir family member 1)	DRSC07344	Wg reporter activity raised	4113		555	
84	az2	DRSC07580		9824		3554	
85	tws (twins)	DRSC12767		3309		1722	
86	tws (twins)	DRSC17092		8321		2183	
87	Uros1 (Uroporphyrinogen III synthase 1)	DRSC18191		2272	2743	752	1533
88	Cks85A (Cyclin-dependent kinase subunit 85A)	DRSC16562		12868		3510	
89	CG18823	DRSC18168		18645		12736	
90	Hsp110 (Heat shock protein 110)	DRSC11186		6673		1610	
91	CG4955	DRSC19927		3248	6410	1325	2560
92	blanks	DRSC09757		2016	8085	1252	3895
93	mRpL42 (mitochondrial ribosomal protein L42)	DRSC06235		3440	3920	887	1737

Quoted from the entries so far for reference:
no.	target gene	DRSC id	reporter change call, replicate 1	firefly reporter light, replicate 1	firefly reporter light, replicate 2	Renilla control light, replicate 1	Renilla control light, replicate 2
8	OS9 + Hf	DRSC03392		6352		2128	
9	salto	DRSC06291		6097		2544	
10	Pat1 (Protein interacting with APP tail-1)	DRSC17750		1970	7008	717	1909
11	CG7914	DRSC20068		19680		11369	
12	Mkk4 (MAP kinase kinase 4)	DRSC16739		11211		2477	
13	Tmtc3 (Transmembrane O-mannosyltransferase targeting cadherins 3)	DRSC04444		9488		2401	
14	CG40005 (retired record) + cta	DRSC03763		20042		12043	
15	CG5162	DRSC19935		21817		10053	
16	Mrp5 (Multidrug resistance protein 5)	DRSC15597		11644		3705	
17	Mrp5 (Multidrug resistance protein 5)	DRSC15598		21107		5363	
18	Tasp1 (Taspase 1)	DRSC10495		3473		1769	
19	CG10919	DRSC14283		17760		4813	
20	Gr10a (Gustatory receptor 10a)	DRSC18897		5446		3085	
21	Gr10a (Gustatory receptor 10a)	DRSC22792		6.92e5	6.97e5	2.90e5	3.25e5
